The data set relates to thyroid glands from B10.D2 donors transplanted in the kidney's capsules of BALB/c mice. Briefly: Function of transplanted thyroids (I125 absorbance), B10.D2→BALB/c model. Type of data set: in vivo, mouse. The note with it: FK 506 300 μg/day ip, 7 times from day −2. On the procedure: In this transplantation model for HVG, thyroid glands from donor mice were transplanted in the kidney's capsules of recipient mice. One week later the transplanted mice were injected with ^125I, and the radioactivity of each kidney (the recipient or the untransplanted kidney) was measured after 20 hours. Δcpm was calculated by subtracting the ^125I absorbance of the untransplanted kidneys from the ^125I absorbance of the recipient kidneys in the same treatment. The mean function index (MFI) for treatment was calculated by dividing the mean Δcpm for the tested treatment by the mean Δcpm for the PBS treatment. P values were obtained by the ANOVA test. This assay indicates objectively and quantitatively not only the graft survival, but also the function (iodine absorbance) of the transplanted thyroid tissue (Isakov et al., 1979). […]
To test the effect of Copolymer 1 treatment on the function of transplanted thyroids in the B10.D2→BALB/c model, thyroid glands from donors B10.D2 were transplanted in the kidney's capsules of BALB/c mice. After one week the transplanted mice were injected with I^125, and the radioactivity of each kidney was measured 20 hours later. A cpm was calculated by subtracting the I^125 absorbance of the untransplanted kidneys from the I^125 absorbance of the recipient kidneys in the same treatment. […]

In the case of `C=CC[C@@H]1/C=C(\C)C[C@H](C)C[C@H](OC)[C@H]2O[C@@](O)(C(=O)C(=O)N3CCCC[C@H]3C(=O)O[C@H](/C(C)=C/[C@@H]3CC[C@@H](O)[C@H](OC)C3)[C@H](C)[C@@H](O)CC1=O)[C@H](C)C[C@@H]2OC` [FK 506, tacrolimus], the “Mean I^125 Absorption, untransplanted Kidney” value is on record as 693 cpm.

For the origin of these results see patent US20060276390A1, “Combined treatments comprising synthetic peptide copolymers for preventing graft rejection” (YEDA RESEARCH AND DEVELOPMENT CO. LTD., priority 2003, published 2006).
